From article PMC3961337
Results are given in words; binding and its absence hold for the method and conditions named. For some of these results: Binding seen in cells or lysates may run through a third protein. Some binding calls cover weakened binding; strength is not graded here. Where a sequence is shown, tags or fusion partners need not be part of it.

Protein sequences, listed by entry. Tags and fused reporters are not part of them.
UniProt Q7AKG9: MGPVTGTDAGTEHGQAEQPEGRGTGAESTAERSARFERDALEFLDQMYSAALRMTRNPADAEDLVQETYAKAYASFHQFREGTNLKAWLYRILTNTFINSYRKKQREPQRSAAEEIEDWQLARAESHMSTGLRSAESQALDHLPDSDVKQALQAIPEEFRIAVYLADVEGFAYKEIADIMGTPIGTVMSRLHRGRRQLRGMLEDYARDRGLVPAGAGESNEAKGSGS

Tests used:
[1] = molecular target: sigR-yfp-pET28a (+) protein (SYP) (S. coelicolor M145) (UniProt Q7AKG9); assay: BLI; Octet QKe; biotinylated σR or SYP (0.5 μM in PBS) captured on streptavidin biosensor tips; RsrA or RCP as analyte, four 2-fold serial dilutions starting at 200 nM; kinetic buffer (binding buffer, 1 mg/ml BSA, 0.02% Tween 20); association and dissociation 14 min each; CFP or YFP as references; 1:1 binding model; both purified
[2] = molecular target: sigR-yfp-pET28a (+) protein (SYP) (S. coelicolor M145) (UniProt Q7AKG9); assay: FRET or BRET; in E. coli BL21 (DE3) cells co-expressing SYP and RCP, cells treated with CaCl2, suspended in PBS pH 7.8; FRET ratio 528 nm/478 nm before and after diamide or ROS
[3] = molecular target: sigR-yfp-pET28a (+) protein (SYP) (S. coelicolor M145) (UniProt Q7AKG9); assay: FRET or BRET; in vitro, 0.5 μM RCP and 0.5 μM SYP in binding buffer (0.01 mM EDTA, 20% glycerol, 10 mM MgCl2, 40 mM Tris, pH 8.0), 30°C, under nitrogen; excitation 440 nm, emission 478 and 528 nm; spectra and time courses; 2.5 mM DTT added in some time courses; both purified
[4] = molecular target: SYP with the histidine tag removed by thrombin (zinc function assay) (S. coelicolor M145) (UniProt Q7AKG9); assay: condition: only with increasing concentrations of diamide or ROS (-OCl, H2O2, ·OH, O2·-, ONOO-); FRET or BRET; dose-response of the same concentration of RCP, SYP and Zn2+ (500 μM) to increasing concentrations of diamide, -OCl, H2O2, ·OH, O2·- and ONOO-; ΔFRET ratio; both purified

| binding [1] | binding [2] | binding [3] | binding [4] | Binder |
| --- | --- | --- | --- | --- |
| binds | binds | binds |  | rsrA-cfp-pET28a (+) protein (RCP) (protein, UniProt Q7AKG8 1-105) MSCGEPHETDCSEILDHLYEFLDKEMPDSDCVKFEHHFEECSPCLEKYGLEQAVKKLVKRCCGQDDVPGDLRAKVMGRLDLIRSGQSVPEHDVAAAPSSSAPQES |
|  |  |  | no binding | RCP with the histidine tag removed by thrombin (zinc function assay) (protein, UniProt Q7AKG8 1-105) MSCGEPHETDCSEILDHLYEFLDKEMPDSDCVKFEHHFEECSPCLEKYGLEQAVKKLVKRCCGQDDVPGDLRAKVMGRLDLIRSGQSVPEHDVAAAPSSSAPQES |
